Results are given in words; binding and its absence hold for the method and conditions named. Some entries that bind do so weakly or less than the wild type.
Tests used:
human CD28 (human) [1] = molecular target: human CD28 (human) (UniProt P10747); test: binding tests of FIG. 5
human CD28 (human) [2] = molecular target: human CD28 (human) (UniProt P10747); test: hybridoma screen on transfected L929 cells
human CD28 (human) [3] = molecular target: human CD28 (human) (UniProt P10747); test: binding to cells expressing the construct, FIG. 5
human CD28 (human) [4] = molecular target: human CD28 (human) (UniProt P10747); test: flow cytometry, titration on human PBMC gated on CD4 T lymphocytes, FIG. 4a

Protein sequences, listed by entry. Tags and fused reporters are not part of them. Lines headed by an entry give the natural chain unless they say otherwise; changes in a name come on top.
UniProt P10747: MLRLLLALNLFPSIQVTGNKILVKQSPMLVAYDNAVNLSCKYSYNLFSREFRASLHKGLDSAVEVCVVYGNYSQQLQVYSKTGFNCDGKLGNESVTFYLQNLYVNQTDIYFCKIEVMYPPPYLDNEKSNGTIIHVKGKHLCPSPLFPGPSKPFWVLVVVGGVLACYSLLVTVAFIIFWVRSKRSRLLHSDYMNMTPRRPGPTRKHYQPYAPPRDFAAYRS

binding (human CD28 (human) [1]): binds
binding (human CD28 (human) [2]): binds
binding (human CD28 (human) [3]): binds
binding (human CD28 (human) [4]): binds
B1: mAb 9D7 (antibody, V domains shown)
VH: DVQLQESGPGLVKPSQSLSLTCTVTGYSITSDYAWNWIRQFPGNKLEWMGYIRYSGSTSYNPSLKSRISITRDTSKNQFFLQLNSVTTEDTATYYCARDWPRPSYWYFDVWGAGTTVTVSS
VL: DIQTTQTTSSLSASLGDRVTISCRAGQDISNYLNWYQQKPDGTVKLLIYYTSRLHSGVPSRFSGSGSGTDYSLTISNLEQEDIATYFCQQGHTLPWTFGGGTKLEIK

— US20110052587A1
